Data reported in patent US8772463B2, “Fluorescent dye-labeled glucose bioprobe, synthesis method and usage thereof” (SNU R&DB Foundation, priority 2007, dated 2014).
At least one compound was matched to its structure with a doubt left.

Tests used:
A549 cells = assay: Screening of anticancer agents by Cy3-Glc-α uptake; type: cell-based, human; conditions: combretastatin 2 μM
Procedure: 1×10^4 cells were cultured on a Lab-Tek glass chamber slide (Nalge Nunc International, Naperville, Ind., USA) in 35 mm cell culture dish. After 24 h, the cells were treated for each experimental purpose. Then, the medium was replaced with RPMI 1640 medium containing 12.5 μM of Cy3-Glc-α. The cells were exposed to Cy3-Glc-α for 40 min, then washed with PBS 3 times. Finally, the glass chamber slide was taken from culture dish and loaded on the fluorescence microscope (Axiovert 200, Carl Zeiss, Germany). Fluorescence images of 35-50 cells were taken by CCD camera (Axiocam MRm, Germany) and fluorescence intensity of each cell was measured by Axiovision (program for data analysis). An area as ROIs (regions of interest) which contains a cell in phase-contrast image was drawn using Axiovision. Axiovision analyzed CCD camera images and provided the digitized mean of fluorescence intensity in the ROIs that the present inventors had established. The present inventors subtracted the background intensity from the fluorescence intensity to get the fluorescence intensity value that a cell contained. With the method described above, the present inventors digitized fluorescence intensity and performed various experiments. […]

3T3/L1 adipocytes [1] = assay: Cellular glucose uptake under insulin, AICAR, dexamethasone monitored by GB2-Cy3; type: cell-based, mouse; conditions: insulin 170 nM, AICAR 1 mM (1 hr) or dexamethasone 1 μM (24 hrs); GB2-Cy3 10 μM
Procedure: For the differentiation of preadipocyte to mature adipocytes, 3T3/L1 fibroblast cells were cultured using the above mentioned culture protocol. […] When the cells start to generate lipid drops as an indication of the differentiation toward mature adipocytes, insulin was removed from the culture media. Mature adipocytes can be achieved by 8- to 12-day differentiation, and used for flow cytometric analysis and fluorescent bioimaging microscopy.
Also, C2C12 cells and 3T3/L1 cells, each having a population of 6×10^4 cells, were cultured and differentiated on respective microscope cover glasses [Marlenfeld GmbH&Co., KG (Germany)] in 35 mm cell culture dishes. After removal of the differentiation media, FBS-free DMEM media containing 5.5 mM glucose were added to maintained a serum-free condition for 4 hrs. […] In this regard, an FBS-free DMEM medium containing 5.5 mM glucose or a DMEM medium free of both FBS and glucose was used. Cells were incubated at 37° C. for 30 min after which the glass chamber slides were withdrawn from the culture dishes and loaded on a chamber. […] Fluorescence images were taken every seven seconds, digitized and saved on a computer until analysis.
3T3/L1 preadipocyte cells and C2C12 […] cells were cultured in 24-well plates. […] 2×10^5 (3T3/L1) or 1×10^5 (C2C12) cells were analyzed using FACSCalibur™ and a confocal laser scanning microscope.

3T3/L1 adipocytes [2] = conditions: cited from earlier work
C2C12 muscle cells = assay: Cellular glucose uptake under insulin, AICAR, dexamethasone monitored by GB2-Cy3; type: cell-based, mouse; conditions: insulin 170 nM, AICAR 1 mM (1 hr) or dexamethasone 1 μM (24 hrs); GB2-Cy3 5 μM

SMILES | effect on cellular uptake of Cy3-Glc-α (A549 cells) | effect on cellular uptake of glucose monitored by GB2-Cy3 (3T3/L1 adipocytes [1]) | reduction in the cellular uptake of 2-deoxyglucose (2-DG) (3T3/L1 adipocytes [2]; 1 μM dexamethasone, 24 h, basal level and insulin-stimulated condition) [%] | cellular uptake of 2-DG under insulin-independent stimulation (3T3/L1 adipocytes [2]; stimulation by 2 mM AICAR) | effect on cellular uptake of glucose monitored by GB2-Cy3 (C2C12 muscle cells)
COc1ccc(C[C@@H](O)c2cc(OC)c(OC)c(OC)c2)cc1O [Combretastatin] | reduction in the cellular uptake of Cy3-Glc-α |  |  |  | 
C[C@@H]1C[C@H]2[C@@H]3CCC4=CC(=O)C=C[C@]4(C)[C@@]3(F)[C@@H](O)C[C@]2(C)[C@@]1(O)C(=O)CO [dexamethasone] |  | effectively reduced the cellular uptake of glucose | 50 | inhibits the cellular uptake of 2-DG | effectively reduced the cellular uptake of glucose
